In patent US20220194997A1, “SUMO PEPTIDES FOR TREATING NEURODEGENERATIVE DISEASES” (The Chinese University of Hong Kong, priority 2019, published 2022):
At least one peptide structure holds a part that was inferred or is arguable (an end, a ring closure or a residue). Where no end group is shown, it is not given here.

Molecular target: T1, α-synuclein (Homo sapiens, UniProt P37840)
T1 construct: made in house; host or cells: Escherichia coli BL21(DE3), pET-28a (NcoI/XhoI)
Assay: Fibrillation (Thioflavin T) assay of SDS-induced α-synuclein aggregation
Type: biochemical
Conditions: equimolar ratio (1:1), 70 μM α-synuclein, 37° C., 7 days
Protocol: The reaction contained the mixture of 70 μM α-synuclein and different concentrations of SUMO1 variants, 40 μM Thioflavin T (ThT) (Sigma-Aldrich), 0.4 mM SDS in reaction buffer (20 mM HEPES, 150 mM NaCl, pH 7.4). Reactions were performed in quadruplicate in a black clear-bottomed 96-well plate (Nunc, Thermo Fisher Scientific) with a final volume of 150 μL. The plate was sealed with sealing membrane (Thermo Fisher Scientific) and loaded into an Infinite M1000 plate reader (Tecan), incubated at 37° C. without agitation. The fluorescence was detected at 30 min intervals, with excitation at 450 nm and with emission at 485 nm. Protein samples were analyzed after fibrillation assay using size-exclusion chromatography on a Superdex 200 GL 5/150 column (3 ml, GE Healthcare) in reaction buffer. […]
Thioflavin T (ThT) assay was performed as previously described^5 with minor modifications. […] Reactions were performed in a black clear-bottomed 96-well plate (Nunc, Thermo Fisher Scientific) sealed with clear adhesive sealing sheet (Thermo Fisher Scientific) to avoid evaporation and loaded into an Infinite® M1000 plate reader (Tecan), incubated at 37° C. for 7 days without agitation. The fluorescence was recorded at 485 nm with excitation wavelength of 450 nm at the interval of 30 min.

RRRRRRRRSSEIHFKVKMTTHLKKLKESYCQRQ [R8-SUMO1(31-55)]
inhibition of α-synuclein aggregation: did not impact the inhibitory ability
